Each number is a percent effect as filed. How 0% and 100% were set is not recorded. Most values in the screen are low, and negative values occur. The compounds are a random part of those screened. Two or more numbers in one place are separate tests of the same structure; such repeats can differ widely.

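Viability assay of Plasmodium falciparum sporozoites; the read-out is not stated. The concentration is filed as 10 mM, unlikely as a test dose, so the dose is not known. Direction is inferred from retests: higher values go with lower viability. Strong results were mostly tested again. Size under these conditions: about 34,000 compounds, about 280 of them at 50% or above in at least one test.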

SMILES: N#CCCN(Cc1cccnc1)C(=O)c1ccc(-n2cnnn2)cc1
Percent Effect: -7.135

SMILES: Cc1nc(N(C)CCCc2nccn2C)c2c(C)nn(C)c2n1
Percent Effect: -0.223

SMILES: Cc1ccc(CN2CC3(CCN(C(=O)c4cscn4)C3)C2)s1.O=C(O)C(F)(F)F
Percent Effect: -5.706

SMILES: Cc1noc2nc(C3CCN(Cc4cccnc4)CC3)cc(C(F)F)c12.Cl
Percent Effect: 1.54

SMILES: COCCc1noc(CN2CCCCC2Cn2nc(C)cc2C)n1 (stereo not shown)
Percent Effect: -4.8

SMILES: CCN1CCCC(O)(CNCc2ccc3c(c2)OCO3)C1 (stereo not shown)
Percent Effect: -18.06

SMILES: O=C(Cc1ccsc1)N1CCC(c2noc(-c3ccncc3)n2)CC1
Percent Effect: 9.831

SMILES: COc1ccc(COCC(O)CNC(=O)c2ccc(C#N)cc2)cc1 (stereo not shown)
Percent Effect: -2.019

SMILES: CC(NC(=O)Nc1cc(F)cc(F)c1)c1nc[nH]n1 (stereo not shown)
Percent Effect: 22.16 and 26.39

SMILES: Cn1cnc2c1C(COCC1CCOCC1)CN(C1CCOCC1)C2.O=C(O)C(F)(F)F.O=C(O)C(F)(F)F (stereo not shown)
Percent Effect: -7.728

SMILES: Cc1nc(C)c(C(=O)N2Cc3ccccc3OCC2Cn2ccnc2)o1 (stereo not shown)
Percent Effect: 1.384

SMILES: CC(=O)N1CCN(Cc2nccs2)CC2(CC(=O)N(C)C2)C1.O=C(O)C(F)(F)F (stereo not shown)
Percent Effect: -5.957

SMILES: O=C1CC(c2ccc(F)c(F)c2)c2snc(C(=O)O)c2N1 (stereo not shown)
Percent Effect: -9.43

SMILES: Cc1ccc(C(=O)NC(CN2CCCC2=O)c2ccccc2)c(=O)[nH]1 (stereo not shown)
Percent Effect: 0.3542

SMILES: CC(C)Oc1ccc(CN2CCC(c3n[nH]c4ncccc34)CC2)cc1
Percent Effect: 8.636

SMILES: O=C(O)C(F)(F)F.[H][C@@]12OCCN(Cc3ccc(F)cc3)[C@@]1([H])CC[C@@H]2OC
Percent Effect: 15.85

SMILES: COCCN1CCC(c2nc3ccc(NC4CCC4)cn3n2)CC1.O=C(O)C(F)(F)F
Percent Effect: 21.6

SMILES: CC(=O)N1CCCC(c2ccc3sc(N)nc3n2)C1 (stereo not shown)
Percent Effect: 3.198

SMILES: Cc1oc(C(=O)O)cc1S(=O)(=O)Nc1ccc(Cl)cc1F
Percent Effect: 27.26

SMILES: COc1cccc(CN2CC(O)CN(C(=O)C3CC3)CC2=O)c1OC (stereo not shown)
Percent Effect: -25.89

SMILES: O=C(O)C(F)(F)F.[H][C@@]12CCN(C3CCC3)C[C@]1([H])OCCN(Cc1ccc(OC)cc1)C2=O
Percent Effect: -13.85

SMILES: Cc1ccc(C(=O)NS(=O)(=O)c2cccc3cnccc23)c(=O)[nH]1
Percent Effect: -8.605

SMILES: Cc1ccc(CS(=O)(=O)CC(=O)NCCCOC(C)C)cc1
Percent Effect: 1.943

SMILES: CS(=O)(=O)N1CCCC1c1cccc(Cc2ccccc2F)n1 (stereo not shown)
Percent Effect: 6.869

SMILES: CC(C)NC(=O)N1CCOC2(CCNCC2)C1
Percent Effect: 25.66

SMILES: Cc1cccc(OCC(O)CN2CCC(c3ccn[nH]3)CC2)c1 (stereo not shown)
Percent Effect: -0.09859

SMILES: CCC1CN(CCNC(C)=O)CCN1CCOC (stereo not shown)
Percent Effect: 4.8

SMILES: Clc1cccc(Cl)c1-c1nnc(CNCCn2cccn2)o1
Percent Effect: -248.7

SMILES: O=C(Cc1csc(-c2ccsc2)n1)N1CCN(c2cnccn2)CC1
Percent Effect: 9.085

SMILES: CN(Cc1noc(C2CC2)n1)C1CCN(Cc2cccc(F)c2F)C1 (stereo not shown)
Percent Effect: 11.03

SMILES: CCc1nc(NC2CCCN(C(=O)C3CC3)C2)c2cnn(C)c2n1 (stereo not shown)
Percent Effect: -2.106

SMILES: O=C(NCc1cnc2n1CCN(Cc1nccs1)CC2)C1CCC1.O=C(O)C(F)(F)F
Percent Effect: -6.053

SMILES: O=C(Cc1ccc2c(c1)OCCO2)NC1CCN(CC(F)F)CC1
Percent Effect: 7.492 and 4.106 and 41.37

SMILES: O=C(Cc1ccc2c(c1)OCO2)N1CCCN(c2ccccc2)CC1
Percent Effect: -19.74

SMILES: [H][C@]12CC[C@]([H])(CN(C(=O)c3cnccn3)C1)N(C(=O)CCc1ccsc1)C2
Percent Effect: 2.193

SMILES: Cc1ccc(NC2CCN(C(=O)c3cccnc3O)CC2)nn1
Percent Effect: 13.93

SMILES: CCO[C@@H]1CO[C@@]2(CCCN(S(=O)(=O)c3cccnc3)C2)C1.O=C(O)C(F)(F)F
Percent Effect: -3.468

SMILES: Cc1nsc(NC(=O)N2CCN(Cc3ccc(F)cc3)C(=O)C2)n1
Percent Effect: -1.559

SMILES: Cc1ccccc1N1CC2(CCN(c3nncs3)C2)CC1=O (stereo not shown)
Percent Effect: -2.368

SMILES: COCCOc1ccc(NC(=O)C2CCCN(C(N)=O)C2)cn1 (stereo not shown)
Percent Effect: -4.194

SMILES: CCCC(=O)NCCc1cc(NC)nc(-c2ccccn2)n1
Percent Effect: 7.315

SMILES: Cc1cc(C(=O)N2CCOCC2c2nc(C)c[nH]2)nc(O)n1 (stereo not shown)
Percent Effect: 6.969

SMILES: CC(C)CN1C(=O)C2(CCN(Cc3cccs3)C2)c2ccccc21.O=C(O)C(F)(F)F (stereo not shown)
Percent Effect: 5.461

SMILES: CCn1cc(CN2CCCN(C(=O)c3sccc3OC)CC2)cn1
Percent Effect: 3.779

SMILES: [H][C@@]12COC[C@]1(c1nc(C)no1)CN(C(=O)N1CCCC1)C2
Percent Effect: -17.58 and 20.84 and -21.83

Repeated from the top, 4 entries:

* N#CCCN(Cc1cccnc1)C(=O)c1ccc(-n2cnnn2)cc1 | -7.135%
* Cc1nc(N(C)CCCc2nccn2C)c2c(C)nn(C)c2n1 | -0.223%
* Cc1ccc(CN2CC3(CCN(C(=O)c4cscn4)C3)C2)s1.O=C(O)C(F)(F)F | -5.706%
* Cc1noc2nc(C3CCN(Cc4cccnc4)CC3)cc(C(F)F)c12.Cl | 1.54%

Data taken from ChEMBL document CHEMBL3988442, “University of Dundee, Small-Polar-MMV Screening Library” (2021).